# Data published in the supplement of paper PMC12889115.
# The list shows a part of the results. These are raw signals, not scaled to a control.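 First-pass screen: polymyxin B was added at a level that permeabilizes the Salmonella outer membrane while sparing the inner membrane. DMSO wells, with and without polymyxin B, defined maximum growth. Because plates differed from one another, each plate's data were ranked separately and the compounds with the lowest OD600 were carried forward as hits.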
# Tested on: Salmonella enterica serovar Typhimurium SL1344
# Experiment: bacterial growth OD600 after 18 h with compound and polymyxin B; higher = more bacterial growth (less inhibition)
# Conditions: 50 µM, Mueller-Hinton broth
SMILES,bacterial growth OD600 (polymyxin B 1 µg/mL),bacterial growth OD600 (polymyxin B 0.75 µg/mL)
COc1ccc(OCc2cc(C(=O)N(C)C(C)c3ccncn3)n[nH]2)c(Cl)c1 (stereo unspecified),0.996,
c1ccc(OCc2noc(-c3ccc(NCCN4CCCC4)nc3)n2)cc1,0.716,
Cc1nc(N2CCC(C(=O)N(C)CCC3CCCCO3)CC2)nc2cc(S(C)(=O)=O)ccc12 (stereo unspecified),,0.79
CC1(C)Cc2c(cnn2-c2ccccc2)C(NC(=O)/C=C/c2c[nH]cn2)C1 (stereo unspecified),0.922,
O=C(C(=O)N1CCC(C2CCN(CCc3ccccc3)C2)CC1)c1ccccc1 (stereo unspecified),,0.797
COc1cccc(CN2CCOc3ccc(C(C)(O)COc4ccccc4)cc3C2)c1 (stereo unspecified),,0.422
COc1ccc(C(=O)NCc2cccc(C)c2)cc1OC1CCN(C(C)=O)CC1,1.08,
COc1cc(CC2(CCC(=O)NCCCn3nnc4ccccc43)CCC(=O)N2)ccc1F (stereo unspecified),,0.984
O=C(C1CC1)N1CCC(Oc2ccc(C(=O)N3CCCCO3)cc2)CC1,1.02,
c1cc(CN(CCN2CCCCC2)CC2CCCN(C3CCCC3)C2)c2nonc2c1 (stereo unspecified),0.958,
COCCN1CCN(C(=O)CC(c2ccccc2)c2ccc(Cl)cc2)CC1 (stereo unspecified),0.896,
CC(C)=CCN1CCN(Cc2cccc(F)c2)CC1CCO (stereo unspecified),0.922,
CC#CCN1C(=O)NC(CCc2ccccc2)(C2CCN(Cc3ccccc3-c3ccco3)CC2)C1=O (stereo unspecified),,0.796
COc1ccc(-n2cc(CNC(C)C)c(-c3ccccc3Cl)n2)cc1,0.831,
CN(CCc1ccccc1)C(=O)C1CCCN(C2CCN(C(=O)C3CC3)CC2)C1 (stereo unspecified),,0.744
CCOC(=O)C1(CCCc2ccccc2)CCN(Cc2ccncc2)CC1,0.013,

SMILES,bacterial growth OD600 (polymyxin B 1 µg/mL),bacterial growth OD600 (polymyxin B 0.75 µg/mL)
CN1C(=O)CC(CC(=O)N2CCC(c3ccc(F)cc3)C2)(c2ccc(-c3ccccc3)cc2)C1=O (stereo unspecified),,0.012
COc1cc(CN2Cc3cc(C)ccc3OC(c3ccsc3)C2)cc(OC)c1OC (stereo unspecified),,0.04
Cc1occc1C(=O)N(C)C(Cc1ccccc1F)C1CCN(C(=O)[C@H]2C[C@@H]3C=C[C@H]2C3)CC1 (stereo partly specified),,0.005
CCn1c(-c2ccccc2F)nc2cc(C(=O)N3CCC(OC)CC3)cc(NC(C)=O)c21,,1.05
COC(=O)CCC(=O)N1CCCC(C(=O)c2ccc(Oc3ccccc3)cc2)C1 (stereo unspecified),0.662,
Cc1nc(N2CCCC(NCc3cccs3)CC2)nc2ccc(F)cc12 (stereo unspecified),,0.769
Cc1cccnc1-c1cccc2c1OC(CNC(=O)C1CC1)C2 (stereo unspecified),,0.844
O=C1CC(NS(=O)(=O)N2CCCC2)CN1CCc1ccccc1 (stereo unspecified),0.933,
CN(CCOc1ccccc1)C(=O)c1cc(COc2c(F)cccc2F)on1,0.741,
C=C(C)CNC(=O)c1cc(COc2cc(C)c(Cl)c(C)c2)on1,,0.111
COc1cc(CNC(=O)C2CCCN(c3nc(C)c4ccc(S(C)(=O)=O)cc4n3)C2)cc(OC)c1 (stereo unspecified),,0.926
COCc1ccc(CN2CCCC(C(=O)Nc3ccccc3-c3ccc(OC)cc3)C2)o1 (stereo unspecified),0.015,
CCOC(=O)C1(CCOc2ccccc2)CCCN(C2CCOCC2)C1 (stereo unspecified),0.41,
O=C(NCC1CCCN(C2CCSCC2)C1)c1cccc(C(F)(F)F)c1 (stereo unspecified),,0.879
CC(C)n1cc(C(=O)NCC2CCCCC2)c(=O)c(C(=O)N(C)Cc2cccs2)c1,,0.895

# Looked up by compound from the entries so far:
SMILES,bacterial growth OD600 (polymyxin B 1 µg/mL),bacterial growth OD600 (polymyxin B 0.75 µg/mL)
CC(C)=CCN1CCN(Cc2cccc(F)c2)CC1CCO (stereo unspecified),0.922,
COc1cc(CNC(=O)C2CCCN(c3nc(C)c4ccc(S(C)(=O)=O)cc4n3)C2)cc(OC)c1 (stereo unspecified),,0.926
